The supplement of paper PMC5949888
Most values lie at the floor of the assay. Slopes are relative: functional sequences can read slightly below zero.

System: Saccharomyces cerevisiae PS128 hsf1 delta, HSF1(1-493) fusion
Test: growth estimate (transactivation domain function in HSF1 fusion, heat-shock survival) (a.u. (slope of normalised read count over time)); higher = stronger growth at 37°C, i.e. more transactivation activity
Details: library: random library

Substance	growth estimate
RACPLLRLKCAYRSVSRTLP	< -0.25
RADDEEAR	< -0.25
RADFNYCPGYEKIFYRATR	< -0.25
RAEY	< -0.25
RAFGISVETRAVGKVLHYNS	< -0.25
RAFL	< -0.25
RAFLFPSGV	< -0.25
RAFYQIQSVYELVLSKYHEI	< -0.25
RAGAATRWIDVRRRTFV	< -0.25
RAGAS	< -0.25
RAGK	< -0.25
RAGKPYLVNVFTSGQPDFKC	< -0.25
RAGPRARFVVA	< -0.25
RAGSYSIGTTPPQLDSVASR	< -0.25
RAGTRHEKALLSDGQRPRST	< -0.25
RAGTSEDFLGEMGSYYNVAD	-0.199
RAGVHWECEC	< -0.25
RAHEDTSVPQARPRHVSRIV	-0.25
RAHNYNEPRQASNSCRDLKY	< -0.25
RAIAHGWRLVNEEMGIGRRK	< -0.25
RAIEDQLRRFQANQGVLEKE	< -0.25
RAKGGAERWSNGKLLNLSLT	< -0.25
RAKGSC	< -0.25
RALFTNV	< -0.25

Substance	growth estimate
RALLGFGILRRRRHNREAVR	< -0.25
RALLSHYVSAMPLYLVKLRR	< -0.25
RALPSY	< -0.25
RALRRLGGAAPREALVS	< -0.25
RALVQTLRGSSGFVEWEGSR	< -0.25
RALYRRNYITPRL	< -0.25
RAMLSTFREKARADDWVARM	< -0.25
RAMLVLLALSFAHAGKAPGS	< -0.25
RANLGSVLLSRDS	-0.148
RANQKARCFVCGSGRAGIVG	-0.243
RANRCFQNRSKEARPGCR	< -0.25
RAPSACVKGPNGGQA	< -0.25
RAQETHTSSSTGKSTRSDAS	< -0.25
RARDGCVR	< -0.25
RARLRERRSIGTLLIRSLLS	< -0.25
RASLGNRFL	< -0.25
RASP	< -0.25
RASTAT	< -0.25
RASTNTSRDPDLL	< -0.25
RATEVRASPLENLATGSDQG	< -0.25
RATRGL	< -0.25
RATRPTIVPATWLNSIKRDA	< -0.25
RAVGGDYTEHFLAFP	-0.231
RAVGILYV	< -0.25

Substance	growth estimate
RAVPQMTHTMALYNHRFF	< -0.25
RAVRNDGS	< -0.25
RAVRVAT	< -0.25
RAVSVPYYGYRFSEPRLSLC	< -0.25
RAVYVPFESMPMTPVSRSAA	< -0.25
RAWQSTML	< -0.25
RAWRPMHVLVQGCRSTPRRP	< -0.25
RAWRVRCGT	< -0.25
RAWSFASNLID	< -0.25
RCADAYSSESQQRSHANGRG	< -0.25
RCADVGTIRPVPK	< -0.25
RCAITVCRTGWSAPRYTCTG	< -0.25
RCANRGARPSVSGECFVRLV	< -0.25
RCARAGGKLFDRSE	< -0.25
RCASPIDSEVSLEGLSEF	< -0.25
RCCPQFTGRRH	< -0.25
RCCTEISGTRRFIQSFGERM	< -0.25
RCCTRPG	< -0.25
RCDAINPLLFPERRQYDRPA	< -0.25
RCEITGIHAIFYVRRSGRCL	< -0.25
RCERLI	< -0.25
RCFQLLHALA	< -0.25
RCGGCAGPPIKKTGQDHLIC	< -0.25
RCGGDNLDEMDLTDEF	< -0.25

Reprinted at random: four entries already listed.
Substance	growth estimate
RAHEDTSVPQARPRHVSRIV	-0.25
RAMLSTFREKARADDWVARM	< -0.25
RAWRPMHVLVQGCRSTPRRP	< -0.25
RATRPTIVPATWLNSIKRDA	< -0.25

(continued)

Substance	growth estimate
RCGLARRTGYVVVVGARRLG	< -0.25
RCHLGRGALREFERI	-0.219
RCIRSRTPREFLCSRPSSLT	< -0.25
RCIYMLQDYCTATSLLQIRQ	< -0.25
RCKRLGVSYRT	< -0.25
RCLGHFDTLT	< -0.25
RCLHRPRDAVGRPRVGSRSI	< -0.25
RCLLAIEWFSVRERINPAVW	< -0.25
RCLPTRRK	< -0.25
RCLSIAQRLWILAEPIYDPT	< -0.25
RCNGSFSGVVFAVR	< -0.25
RCNQDRVIPQRLIRWEAETR	< -0.25
RCPDEFHVGLLVVSEPNSES	-0.238
RCQRSCGDHGYEFNSGWVQI	< -0.25
RCRGGGESRIWAVVRNGARG	< -0.25
RCRGKRSMELSEGDSLSKDV	< -0.25
RCRPLIHGPKGTSLCRT	< -0.25
RCSPLLNERAEGGERSQSGT	< -0.25
RCSRAYWKLQVRSALC	< -0.25
RCTRLRGLVAVVCLGVA	< -0.25
RCVLVWTQPGNRCWGSEESC	< -0.25
RCWAGSVRIGLAREDGSVNG	< -0.25
RCYKPPQSPAGRELYSSCVV	< -0.25
RDAETALATKLSCAVTSTSV	< -0.25

Substance	growth estimate
RDAGEAHGRATPAFTIC	< -0.25
RDAGSYGNQQNWIARACMGI	1.56
RDASVGHLMHVGAGTLSAKG	< -0.25
RDCGDRHMKPNGRVDGCCQA	< -0.25
RDCRSWQFKRLIGP	< -0.25
RDCRTSWDRGSLRKPTPVYW	< -0.25
RDDHWKSLPGSSVHSDRDGA	< -0.25
RDERELPVTVTQ	< -0.25
RDFAHDNCLNGIYCHCTVCI	-0.24
RDFGDCLHLRPDVLALAPKG	< -0.25
RDGIGSQL	< -0.25
RDGRRSNW	< -0.25
RDGSAGPIGVSTCEYIYSRV	< -0.25
RDGSDQASIRPPQFVVPHQS	< -0.25
RDGVVM	< -0.25
RDHLCTRWSLELDY	< -0.25
RDHLIMTLGQLNQ	< -0.25
RDHTPLGL	< -0.25
RDIFAKLPMRYVNSTPGHHR	< -0.25
RDIHLKQQIKGR	< -0.25
RDIRACSVRIDPAALCSPEP	< -0.25
RDK	< -0.25
RDLKYSSTRKCRTHMHLLIP	< -0.25
RDLLTFRRGIHFITSKTTPP	< -0.25

Substance	growth estimate
RDNVR	< -0.25
RDPKSTWVVLTQGLRVLRQW	< -0.25
RDREL	< -0.25
RDTHNVSPALARRWTRVVTR	< -0.25
RDTLLGFMVGRGLLKMGTHC	< -0.25
RDVGVQGRKQVVTVTLM	< -0.25
RDVMFFDKWSPCLCCFCAPP	< -0.25
RDVSTTILYGRRSGDPCSQR	< -0.25
RDWCCCLRNDIGYGGKYRSR	< -0.25
REAAFTACAIMSFTFPYVPR	< -0.25
REAPGPTI	< -0.25
REARERLPSCIPDSR	< -0.25
RECPMSVQWVRHINRASPTR	< -0.25
RED	< -0.25
REDTACQVLVVSARGRHHPR	< -0.25
REEDAFRSLCLV	< -0.25
REFDVFFAGI	-0.0584
REGERRSIEPG	< -0.25
REGEVYD	< -0.25
REGGDP	< -0.25
REGGSRRGNV	< -0.25
REGHGGPQMSTRTA	< -0.25
